This is an account of results in publication PMC10781749.

Amino acid sequences for entries named in this document (tags omitted). A change or cut given only in a name is not applied to a line headed by its entry.
UniProt Q5LDU9: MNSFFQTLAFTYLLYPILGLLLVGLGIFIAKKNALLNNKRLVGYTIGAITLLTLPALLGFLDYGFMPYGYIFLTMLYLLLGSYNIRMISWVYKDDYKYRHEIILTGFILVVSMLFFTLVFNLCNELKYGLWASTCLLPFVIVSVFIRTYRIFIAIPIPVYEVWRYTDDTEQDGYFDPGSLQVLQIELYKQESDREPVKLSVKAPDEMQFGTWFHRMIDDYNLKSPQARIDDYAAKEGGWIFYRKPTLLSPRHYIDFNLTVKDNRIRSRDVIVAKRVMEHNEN
UniProt Q5LDV3: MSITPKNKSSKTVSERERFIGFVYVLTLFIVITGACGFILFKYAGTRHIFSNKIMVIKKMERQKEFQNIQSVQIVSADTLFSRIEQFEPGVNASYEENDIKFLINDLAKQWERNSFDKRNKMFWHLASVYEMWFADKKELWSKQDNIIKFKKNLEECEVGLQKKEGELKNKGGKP
UniProt Q5LDV2: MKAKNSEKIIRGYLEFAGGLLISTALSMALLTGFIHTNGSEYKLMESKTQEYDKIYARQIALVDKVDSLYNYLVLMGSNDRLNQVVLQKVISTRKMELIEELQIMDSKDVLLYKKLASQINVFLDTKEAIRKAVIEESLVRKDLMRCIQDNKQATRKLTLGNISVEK

Assay [1] concerns the target TssN^STREP (tssN tagged at its native locus in B. fragilis NCTC 9343) (Bacteroides fragilis NCTC 9343) (UniProt Q5LDU9). Put plainly: affinity purification with mass spectrometry; B. fragilis NCTC 9343 with TssN^STREP and ^HISTssO at native loci; total membranes solubilised with detergents; two-step affinity chromatography; elution analysed by LC-MS/MS of excised gel bands, two biological replicates.

The target in assay [2] is ^HISTssO (tssO tagged at its native locus in B. fragilis NCTC 9343) (Bacteroides fragilis NCTC 9343) (UniProt Q5LDV3). Described as above.

Results are given in words; binding and its absence hold for the method and conditions named. Binding seen in cells or lysates may run through a third protein. A yes stands for co-enrichment or nearness to the bait. Other partners may have been found.

As for “TssQ (endogenous, B. fragilis) (from UniProt Q5LDV2)”, the binding result in assay [1] and in assay [2] was “binds” each time.
